The list shows a part of the results.

The assay deals with T1, OsSMF1 (Oryza sativa, UniProt Q6ZLB0 1-436).
T1 sequence: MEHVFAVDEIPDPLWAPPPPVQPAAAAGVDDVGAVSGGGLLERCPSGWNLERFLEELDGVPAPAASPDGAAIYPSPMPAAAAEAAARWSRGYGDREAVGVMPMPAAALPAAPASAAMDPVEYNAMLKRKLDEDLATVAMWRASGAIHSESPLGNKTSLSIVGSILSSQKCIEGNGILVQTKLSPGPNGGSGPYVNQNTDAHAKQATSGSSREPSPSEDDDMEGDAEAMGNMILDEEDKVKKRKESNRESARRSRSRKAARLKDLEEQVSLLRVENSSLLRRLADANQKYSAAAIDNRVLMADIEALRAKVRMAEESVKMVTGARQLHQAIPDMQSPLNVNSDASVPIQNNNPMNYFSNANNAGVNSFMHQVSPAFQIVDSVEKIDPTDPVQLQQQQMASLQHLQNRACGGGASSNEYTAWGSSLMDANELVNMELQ
Kind of assay: protein-binding microarray (RPBM); PBS, 2% BSA, 51.3 ng/ul salmon testes DNA, 50 uM zinc acetate, 200 nM TF, 25 C, 1 h; high values mean tight binding. As to conditions: protein: recombinant; tags: N-terminal polyhistidine and DsRed monomer fusion (pET32a); chain copies: 2; label: CyDye5-dUTP incorporated in the synthesized complementary strand; 3' TTTTT single-stranded linker to array surface; dsDNA, one strand shown. In outline: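 Binding signal is defined as the fluorescence intensity of each feature in arbitrary units, read on an Axon 4000B scanner. Transcription factors with N-terminal polyhistidine and DsRed fusions came from E. coli BL21-CodonPlus and were purified on Ni–NTA. They were incubated at 200 nM for 1 h at 25 °C on a custom Agilent array that had been made double-stranded with Cy5-dUTP, with 50 µM zinc acetate present, and the array was washed.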
With “AGCACACACGTTGCTGCCCCAACTCCAACTCTGCAACAAGCGGAGTCACCTAGTGCAG”, the binding signal was 3280 fluorescence intensity (a.u.).

Take “TTTGGCTGCCGACACGTCCCCTTGGTTGCAACAAACCTCTCGGAGTCACCTAGTGCAG”: the binding signal was 5200 fluorescence intensity (a.u.).

Turning to “GTGCCACGCAGTATCACTCTTGTCCTGTCGCCTTCGATTTCGGAGTCACCTAGTGCAG”, the binding signal is 3240 fluorescence intensity (a.u.).

In the case of “TGCTTCTATTGCTGCTATTGTTCTTGATCTATTGCTGCTACGGAGTCACCTAGTGCAG”, the binding signal was 27500 fluorescence intensity (a.u.).

As for “ATGTTGAATGTGGTAAGATTGTTGAATGTTCTGCAGATGTCGGAGTCACCTAGTGCAG”, the binding signal was 3260 fluorescence intensity (a.u.).

As to “ATAAAATTTTATGATATATAGATAATAATTTTACTTGCAACGGAGTCACCTAGTGCAG”, the binding signal was 4550 fluorescence intensity (a.u.).

Regarding “ACGGCCCAGATCACGCCACTGACGTGTACGCCCTGCCGTGCGGAGTCACCTAGTGCAG”, the binding signal is 23100 fluorescence intensity (a.u.).

Take “CTTCCTTTGCCTTGTCGGCGGCGATGGCGGCGTCGGCGTGCGGAGTCACCTAGTGCAG”: the binding signal was 3810 fluorescence intensity (a.u.).

Take “TCGGATTCCATGGCGAATTGGTGACTCGGTGGCAAGGTCCCGGAGTCACCTAGTGCAG”: the binding signal was 3670 fluorescence intensity (a.u.).

For the sequence “CACTGCTTTGTTTGATTGTCAGTTGGTGTGCTTTCTTACCCGGAGTCACCTAGTGCAG”, the binding signal was 10300 fluorescence intensity (a.u.).

In the case of “GCGAAATCTGATGATACTTAGGGCAGTCACAATGCGTCACCGGAGTCACCTAGTGCAG”, the binding signal is 4270 fluorescence intensity (a.u.).

In the case of “ATTCAAAGGCATGCGAATGAGGTGGCATACCCTCAAATTTCGGAGTCACCTAGTGCAG”, the binding signal is 5000 fluorescence intensity (a.u.).

Consider “GTTATCTTCAGGATGTCGATCTGCACGTCATCTCTATCATCGGAGTCACCTAGTGCAG”, for which the binding signal was 9890 fluorescence intensity (a.u.).

As to “CATACTCATTATTCCCGTCCACATGGTTTCATCTCGCCAGCGGAGTCACCTAGTGCAG”, the binding signal is 3550 fluorescence intensity (a.u.).

As for “CCTGACCAAAGACGTCATCCCCTGAATTTCCAGCACGCCACGGAGTCACCTAGTGCAG”, the binding signal was 5390 fluorescence intensity (a.u.).

“CGGCAGCCATGGAGAACGTCACCGGAGGAGGAGGAGGAGGCGGAGTCACCTAGTGCAG”: the binding signal was 3610 fluorescence intensity (a.u.).

As for “CATTCCTCTCTTTCCCCTCATCCCTATAAATCCAACATTTCGGAGTCACCTAGTGCAG”, the binding signal is 3440 fluorescence intensity (a.u.).

Consider “AACGCAACGGCCGCGCCACGCCACGCCACGCGACGCGACCCGGAGTCACCTAGTGCAG”, for which the binding signal was 8660 fluorescence intensity (a.u.).

On to “GCTGCCAATCGATGACCGTGACAAGTCCTTCATAATCCTACGGAGTCACCTAGTGCAG”, for which the binding signal is 9160 fluorescence intensity (a.u.).

For the sequence “GTATCTATCTGTCATCAGATTGACGTGGTACACAATTCTTCGGAGTCACCTAGTGCAG”, the binding signal is 6090 fluorescence intensity (a.u.).

Turning to “GAAAACGTCGCCGTTAATACAACTAGCCACGCTAGCCTGCCGGAGTCACCTAGTGCAG”, the binding signal was 3550 fluorescence intensity (a.u.).

“AACGGTTTATATGATGTGCTGCTGACTCACTCATTATTCTCGGAGTCACCTAGTGCAG”: the binding signal was 21400 fluorescence intensity (a.u.).

On to “GCTAACTCAATGTTGTATTAAATGTATACACACGTAACATCGGAGTCACCTAGTGCAG”, for which the binding signal is 3260 fluorescence intensity (a.u.).

Source of the values: PMC7819943, “Rice protein-binding microarrays: a tool to detect cis-acting elements near promoter regions in rice”.
